Reference: publication PMC5105069, “Structural assemblies of the di- and oligomeric G-protein coupled receptor TGR5 in live cells: an MFIS-FRET and integrative modelling study” (Scientific Reports, 2016)
No constants are given. Whether binding was seen depends on the method and setting. In cells and extracts the contact can be indirect. Some binding calls cover weakened binding; strength is not graded here. Tags and fused reporters may be left off the sequences shown.

Molecular target: T1, TGR5 wt (His-tagged TGR5 wt and TGR5 wt-YFP), Q8TDU6
T1 chain: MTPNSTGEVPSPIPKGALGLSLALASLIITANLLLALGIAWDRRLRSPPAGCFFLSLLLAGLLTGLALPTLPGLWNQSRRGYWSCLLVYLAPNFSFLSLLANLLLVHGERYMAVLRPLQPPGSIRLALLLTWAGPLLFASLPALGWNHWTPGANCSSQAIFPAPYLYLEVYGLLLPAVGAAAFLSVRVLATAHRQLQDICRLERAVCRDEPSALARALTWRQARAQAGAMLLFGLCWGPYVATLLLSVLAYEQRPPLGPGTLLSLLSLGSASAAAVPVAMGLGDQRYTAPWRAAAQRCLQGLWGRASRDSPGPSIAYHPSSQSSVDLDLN
Assay: co-IP; HEK293 cells co-transfected with TGR5-His and a TGR5-YFP variant; IP with anti-His antibody; precipitate deglycosylated with N-glycosidase-F; Western blot with anti-GFP and anti-His; densitometry as GFP to His levels (n = 4)
Conditions: remark: other sources report otherwise

binding: binds
B1: TGR5 wt (His-tagged TGR5 wt and TGR5 wt-YFP), Q8TDU6 1-330 (receptor)
chain: T1 chain
